In article PMC10113255, “PHF14 enhances DNA methylation of SMAD7 gene to promote TGF-β-driven lung adenocarcinoma metastasis”:

Legend:
Assay in all cases: EMSA
[1] = system: T1, PHF14 full-length E430A K435A (Homo sapiens); conditions: text: 'drastically vanished', text says methylated CG-rich probe, legend says unmethylated; EMSA: LightShift kit protocol, 0.5x TBE native PAGE, buffer not stated; recombinant protein; protein details: His; label: biotin (EMSA)
T1 sequence (looked up, limits assumed): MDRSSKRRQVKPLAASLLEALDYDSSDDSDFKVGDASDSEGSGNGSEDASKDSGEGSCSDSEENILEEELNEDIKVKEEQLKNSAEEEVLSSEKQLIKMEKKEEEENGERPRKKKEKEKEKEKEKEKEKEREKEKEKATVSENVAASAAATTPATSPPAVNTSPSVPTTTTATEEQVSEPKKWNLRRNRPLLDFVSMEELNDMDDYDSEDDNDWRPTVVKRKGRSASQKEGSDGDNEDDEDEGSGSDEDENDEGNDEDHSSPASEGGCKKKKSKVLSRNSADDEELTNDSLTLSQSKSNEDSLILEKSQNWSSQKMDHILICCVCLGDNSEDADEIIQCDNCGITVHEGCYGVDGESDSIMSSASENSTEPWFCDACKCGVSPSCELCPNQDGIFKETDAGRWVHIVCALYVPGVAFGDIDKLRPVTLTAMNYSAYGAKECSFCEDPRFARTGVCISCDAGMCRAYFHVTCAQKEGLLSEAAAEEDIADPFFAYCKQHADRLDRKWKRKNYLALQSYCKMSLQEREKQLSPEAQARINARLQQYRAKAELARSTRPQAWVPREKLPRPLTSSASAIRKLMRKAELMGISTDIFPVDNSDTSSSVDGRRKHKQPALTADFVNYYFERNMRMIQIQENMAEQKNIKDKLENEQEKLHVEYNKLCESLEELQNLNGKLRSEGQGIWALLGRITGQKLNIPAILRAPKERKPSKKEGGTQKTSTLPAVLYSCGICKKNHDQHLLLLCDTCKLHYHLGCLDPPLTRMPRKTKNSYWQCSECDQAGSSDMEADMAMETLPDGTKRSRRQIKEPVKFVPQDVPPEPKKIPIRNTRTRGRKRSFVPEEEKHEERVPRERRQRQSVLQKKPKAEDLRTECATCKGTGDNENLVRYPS

[2] = molecular target: T2, PHF14 ePHD domain E430A K435A (Homo sapiens) (UniProt O94880); conditions: text: 'drastically vanished', text says methylated CG-rich probe, legend says unmethylated, SPR shows residual binding; EMSA: LightShift kit protocol, 0.5x TBE native PAGE, buffer not stated; recombinant protein; protein details: His (EMSA, purification method), FLAG (SPR); label: biotin (EMSA)
T2 sequence (looked up, limits assumed): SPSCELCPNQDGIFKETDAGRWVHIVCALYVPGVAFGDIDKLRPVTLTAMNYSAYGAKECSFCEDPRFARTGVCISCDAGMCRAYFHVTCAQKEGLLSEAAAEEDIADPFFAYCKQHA

[3] = system: T3, PHF14 full-length WT (Homo sapiens); conditions: EMSA: LightShift kit protocol, 0.5x TBE native PAGE, buffer not stated; recombinant protein; protein details: His; label: biotin (EMSA)
T3 sequence (looked up, limits assumed): T1 sequence (looked up, limits assumed) with A430E, A435K

“ACGGCTCGTCGCTACGGCTCGTCGCT (double strand) [CG-rich probe, unmethylated]”: no binding [1]; no binding [2]; binds [3].

Residue numbers refer to the chain shown, from its start. Construct, isoform or probe ends are uncertain for at least one entry. For part of these data: A negative result means that nothing was seen under these conditions. At least one verdict rests on a figure or table, not on a statement of the authors. Tags and fusion partners may be left off the protein sequences shown.
